Residue numbers refer to the chain shown, from its start. No constants are given. Whether binding was seen depends on the method and setting. In cells and extracts the contact can be indirect. Some entries that bind do so weakly or less than the wild type. Sequences can lack the tags named with a protein.
Key:
Assay in all cases: co-IP
[1] = molecular target: T1, Flag-BRAT1 P309_Q310del (human) (UniProt Q6PJG6)
T1 sequence: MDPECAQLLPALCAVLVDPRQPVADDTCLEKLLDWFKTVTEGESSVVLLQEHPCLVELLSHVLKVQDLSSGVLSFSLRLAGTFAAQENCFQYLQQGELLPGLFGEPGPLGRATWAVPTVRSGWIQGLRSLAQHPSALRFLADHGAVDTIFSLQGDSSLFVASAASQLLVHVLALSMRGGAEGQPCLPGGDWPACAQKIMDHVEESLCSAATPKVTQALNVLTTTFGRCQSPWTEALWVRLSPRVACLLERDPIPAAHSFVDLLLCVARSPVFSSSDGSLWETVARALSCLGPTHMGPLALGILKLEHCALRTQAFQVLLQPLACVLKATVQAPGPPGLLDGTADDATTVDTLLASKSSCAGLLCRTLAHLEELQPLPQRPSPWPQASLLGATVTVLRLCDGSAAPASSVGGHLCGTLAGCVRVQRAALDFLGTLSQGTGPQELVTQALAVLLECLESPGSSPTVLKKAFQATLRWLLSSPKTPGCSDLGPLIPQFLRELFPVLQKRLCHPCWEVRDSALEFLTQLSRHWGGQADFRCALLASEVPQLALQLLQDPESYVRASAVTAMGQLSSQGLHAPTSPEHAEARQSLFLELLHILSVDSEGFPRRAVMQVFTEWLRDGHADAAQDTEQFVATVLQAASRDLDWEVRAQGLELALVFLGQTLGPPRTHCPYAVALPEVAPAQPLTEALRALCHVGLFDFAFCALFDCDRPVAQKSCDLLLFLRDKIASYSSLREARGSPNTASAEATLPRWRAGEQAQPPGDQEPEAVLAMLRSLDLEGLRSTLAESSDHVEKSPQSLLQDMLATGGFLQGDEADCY

Amino acid sequences for entries named in this document (tags omitted).
UniProt Q9NV88: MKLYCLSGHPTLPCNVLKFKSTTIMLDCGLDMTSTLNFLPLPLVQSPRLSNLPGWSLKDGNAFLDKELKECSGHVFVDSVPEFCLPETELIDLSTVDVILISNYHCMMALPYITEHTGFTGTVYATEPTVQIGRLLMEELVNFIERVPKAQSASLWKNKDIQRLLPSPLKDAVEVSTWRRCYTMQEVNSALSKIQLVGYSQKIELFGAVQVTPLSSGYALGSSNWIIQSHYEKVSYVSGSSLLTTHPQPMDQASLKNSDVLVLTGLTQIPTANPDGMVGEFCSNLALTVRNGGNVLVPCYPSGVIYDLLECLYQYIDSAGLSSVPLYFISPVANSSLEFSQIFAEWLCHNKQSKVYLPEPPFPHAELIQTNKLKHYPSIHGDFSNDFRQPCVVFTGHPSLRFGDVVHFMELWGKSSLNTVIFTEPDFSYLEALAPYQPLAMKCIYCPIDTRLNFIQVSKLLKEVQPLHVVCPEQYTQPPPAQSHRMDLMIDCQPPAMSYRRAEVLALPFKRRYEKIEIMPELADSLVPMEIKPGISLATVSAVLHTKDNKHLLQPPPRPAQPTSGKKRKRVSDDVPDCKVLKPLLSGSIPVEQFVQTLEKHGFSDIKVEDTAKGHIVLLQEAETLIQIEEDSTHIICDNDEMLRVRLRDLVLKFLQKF
UniProt Q5TA45: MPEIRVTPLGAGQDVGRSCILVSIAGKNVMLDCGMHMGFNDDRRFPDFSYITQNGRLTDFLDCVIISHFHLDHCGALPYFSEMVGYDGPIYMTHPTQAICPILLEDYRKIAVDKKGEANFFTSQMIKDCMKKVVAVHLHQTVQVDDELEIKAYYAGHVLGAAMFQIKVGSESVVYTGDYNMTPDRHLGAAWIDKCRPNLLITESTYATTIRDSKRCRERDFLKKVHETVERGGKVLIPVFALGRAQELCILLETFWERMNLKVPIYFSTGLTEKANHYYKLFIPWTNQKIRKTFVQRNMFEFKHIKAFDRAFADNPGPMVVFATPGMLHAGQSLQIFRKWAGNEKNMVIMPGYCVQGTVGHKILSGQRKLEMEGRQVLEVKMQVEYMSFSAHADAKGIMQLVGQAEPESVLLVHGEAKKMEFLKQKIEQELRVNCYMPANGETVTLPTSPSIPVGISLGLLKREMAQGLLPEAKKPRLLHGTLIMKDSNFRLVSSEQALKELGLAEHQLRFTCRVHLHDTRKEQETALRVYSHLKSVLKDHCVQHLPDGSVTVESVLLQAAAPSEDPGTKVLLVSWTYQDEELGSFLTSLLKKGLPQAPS

Flag-BRAT1 E522K (human) = molecular target: T2, Flag-BRAT1 E522K (human) (UniProt Q6PJG6)
T2 sequence: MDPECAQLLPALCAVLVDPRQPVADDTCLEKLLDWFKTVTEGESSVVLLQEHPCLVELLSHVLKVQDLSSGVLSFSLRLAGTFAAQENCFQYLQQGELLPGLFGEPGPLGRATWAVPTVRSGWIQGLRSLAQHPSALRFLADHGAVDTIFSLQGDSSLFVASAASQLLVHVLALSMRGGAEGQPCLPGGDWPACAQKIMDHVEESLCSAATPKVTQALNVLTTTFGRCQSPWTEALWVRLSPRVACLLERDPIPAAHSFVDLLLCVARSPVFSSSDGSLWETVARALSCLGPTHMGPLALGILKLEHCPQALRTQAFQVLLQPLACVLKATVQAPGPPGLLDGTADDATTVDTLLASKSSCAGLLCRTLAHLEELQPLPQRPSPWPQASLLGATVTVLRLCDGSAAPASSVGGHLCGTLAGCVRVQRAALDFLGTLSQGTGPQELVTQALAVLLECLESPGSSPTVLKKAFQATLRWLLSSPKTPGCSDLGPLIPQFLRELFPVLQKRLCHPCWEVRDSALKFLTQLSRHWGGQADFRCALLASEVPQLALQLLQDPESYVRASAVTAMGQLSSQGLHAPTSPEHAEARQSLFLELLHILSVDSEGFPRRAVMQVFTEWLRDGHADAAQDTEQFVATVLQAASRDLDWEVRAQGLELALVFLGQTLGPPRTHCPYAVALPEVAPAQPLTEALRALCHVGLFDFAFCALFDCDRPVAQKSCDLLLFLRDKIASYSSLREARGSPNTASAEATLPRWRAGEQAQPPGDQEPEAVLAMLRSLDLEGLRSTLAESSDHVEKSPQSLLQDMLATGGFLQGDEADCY

Flag-BRAT1 V62E (human) = molecular target: T3, Flag-BRAT1 V62E (human) (UniProt Q6PJG6)
T3 sequence: T2 sequence with V62E, K522E

binding [1] | binding (Flag-BRAT1 E522K (human)) | binding (Flag-BRAT1 V62E (human)) | Substance
binds | no binding | binds | INTS9 (endogenous, HEK293T) (from UniProt Q9NV88 1-658)
binds | no binding | binds | INTS11 (endogenous, HEK293T) (from UniProt Q5TA45 1-600)
